# From patent publication EP4786486A1 (Universidad Complutense De Madrid, priority 2023, dated 2025)
# HELM strings list residues between dots; [ac] is acetyl, [am] amide, other brackets name non-standard units.
# Assay: general procedure: Fmoc solid-phase peptide synthesis; TentaGel resin with Rink amide spacer, 0.24 mmol/g
# Conditions: whole synthesis; for final purity (method not given): HPLC
substance,measurement,value
PEPTIDE1{[Pal].F.T.R.E.S.L.A.A.I.E.K.[am]}$$$$V2.0,isolated yield,16%
same,final purity (method not given),99%
PEPTIDE1{[Pal].R.F.T.R.E.S.L.A.A.I.E.K.[am]}$$$$V2.0,isolated yield,25%
same,final purity (method not given),98%
"PEPTIDE1{[Pal].R.F.T.R.E.S.L.A.A.I.E.K.[am]}|CHEM1{[FTC]}$PEPTIDE1,CHEM1,13:R3-1:R2$$$V2.0",isolated yield,18%
same,final purity (method not given),96%
PEPTIDE1{[ac].F.T.R.E.S.L.A.A.I.E.K.R.[am]}$$$$V2.0,isolated yield,29%
same,final purity (method not given),99%
PEPTIDE1{[ac].F.T.R.E.S.L.A.A.I.E.K.[am]}$$$$V2.0,isolated yield,21%
same,final purity (method not given),100%
"PEPTIDE1{[ac].R.F.T.R.E.S.L.A.A.I.E.K.[am]}|CHEM1{[FTC]}$PEPTIDE1,CHEM1,13:R3-1:R2$$$V2.0",isolated yield,18%
same,final purity (method not given),95%
PEPTIDE1{[ac].R.F.T.R.E.S.L.A.A.I.E.[am]}$$$$V2.0,isolated yield,55%
same,final purity (method not given),98%
Pal-RFTRESLAAIE-NH2,isolated yield,13%
same,final purity (method not given),97%
